According to paper PMC10163288:
Some of the results follow.

B1: il2ra_site2_3nfp_normal_mot_HHH_b1_00015_000000185_0001_19_35_H_._HHH_b1_07886_af2_0001_0000100002_0000001_0 (protein)
chain: SSSSSSEEVEKLLEEARELLEEGNPEEAHEVLSRAALIAYELGDQELWLKVAELILEILRSSSSS
B2: il2ra_site1_3nfp_normal_mot_HHH_b1_01159_af2_000000107_0001_1_20_H_._HHH_b1_07692_af2_0001_0000400008_0000001_0 (protein)
chain: SSSSNESEELERLFRRLFELAQNNDEEELEKLLEELEKLAEELNNRVAQIAVEQAKRILRSSSSS
B3: il2ra_site1_2b5i_sap_13_mot_HHH_b1_05658_000000212_0001_1_19_H_._c5c5405774e46e68d219586b833d645f_0001_0001_0000200008_0000001_1_0001_af2pred_0001_af2pred (protein)
chain: SSSSDLRREVLELLREADELFKKGDPEQAREVLEEARELAEKLNSPSLRRLIEAALRQIESSSSS
B4: il2ra_site2_2erj_sap_19_mot_HHH_b2_01275_af2_000000073_0001_23_39_H_._HHH_b1_03567_af2_0001_0000100005_0000001_0_0001 (protein)
chain: SSSSSEELEELYELANRLTHAVHNNDPEEVRELFRELEELAEEFGSDNVREIAEALLRKIESSSS
B5: il2ra_site1_3nfp_sap_17_mot_283d32d1de96e0fd5fa90eda9d1788c9_0001_1_000000176_0001_17_32_H_._HHH_b2_01367_0001_0000500039_0000001_1_0001_af2pred_0001_af2pred_1 (protein)
chain: SSSSDESEELLEEAERLLEELLEEGDPEEALKVAEHYARLLRELGDYEAAERLLKAALEKSSSSS
B6: il2ra_site2_3nfp_sap_34_mot_HHH_b2_03235_000000174_0001_1_18_H_._82834fc24cc795dc99f6b4b83d3129f3_0001_0001_0000100001_0000001_0_0001 (protein)
chain: SSSSSSDVEELLEEAERALEEGDKLEAAQLIVEASELAARRNDPELARLVLELYKKLKSSSSSSS
B7: il2ra_site2_2erj_sap_20_mot_HHH_b1_04373_af2_000000118_0001_18_33_H_._HHH_b2_06818_0001_0000300019_0000001_0_0001 (protein)
chain: SSSSDEVEKLLEEAEELLEEGDPEKAWEVLRRAATLAFRLGDFEAFNEIAELLREIAQRLASSSS
B8: il2ra_site2_2erj_normal_mot_HHH_b1_05749_af2_000000086_0001_23_39_H_._HHH_b2_01918_0001_0000200007_0000001_0 (protein)
chain: SSSSDELEEEVEELLEEVRRAYEEGDLEEAYRLAVRVFALAAENNDPELQRAVTRLLEELSSSSS
B9: il2ra_site2_2erj_normal_mot_HHH_b2_05804_000000098_0001_44_58_H_._HHH_b2_04229_af2_0001_0000800015_0000001_0 (protein)
chain: SSSSSDERELWERVAELLARAAHIEDEEEVEELLEEAERLAREANNPFLRRYVEFARRTFSSSSS
B10: il2ra_site2_2erj_normal_mot_HHH_b2_06291_af2_000000033_0001_23_39_H_._4949e777cf0084a35dc4178a1d33e300_0001_0001_0000300010_0000001_0 (protein)
chain: SVLTIIIELVSKNPDDEALRIAYAALAAKKQGDPEALKHLQELLEELEEEGDPSAEEALRLLEEG
B11: il2ra_site1_3nfp_sap_20_mot_HHH_b2_05178_af2_000000174_0001_1_19_H_._HHH_b2_01749_0001_0001100031_0000001_1_0001_af2pred_0001_af2pred_1_swapped (protein)
chain: SSSSSREEIRRLIEEALRLAFNGNPEEAKKLLEEALRLAEEENDEKLFRIVERDLRSLEGSSSSS
B12: il2ra_site1_3nfp_sap_13_mot_HHH_b1_01159_af2_000000075_0001_1_20_H_._HHH_b2_08011_af2_0001_0000600042_0000001_0_0001 (protein)
chain: DKILEWLLRQLKENVPDPEKAARRLIESVAQAANVPPEEAIKFLRELAQELGDEELEEILRELLK
B13: il2ra_site1_3nfp_sap_20_mot_HHH_b1_03528_000000163_0001_19_38_H_._HHH_b1_01475_0001_0000300017_0000001_0_0001 (protein)
chain: SSSSSDFIEIAKRVDELLKKAAKIPDEEEVKELLEEAERLAEEANDPIARRLVEDMKKNLSSSSS
B14: il2ra_site1_3nfp_sap_11_mot_HHH_b2_05615_000000234_0001_23_39_H_._HHH_b2_06429_0001_0000100002_0000001_0_0001 (protein)
chain: SSSSNNELAKEVQEVLREAQELKKNGNPEEAERLLEEILEEAERMGDRIARRLIEDLLRLLSSSS
B15: il2ra_site1_1z92_sap_15_mot_HHH_b1_00226_000000149_0001_43_56_H_._b925e59edd779d0086be7e3255078c1f_0001_1_0001_0000300037_0000001_0_0001 (protein)
chain: TREELIEKLAELLGLPPEVVKRDLEALERLLGDPRKAVRNFLILLRQMGKLTPEVEELLEEIART
B16: il2ra_site2_2erj_sap_24_mot_HHH_b2_05720_000000165_0001_1_18_H_._8b3018496bece20695a4731cc719293d_0001_1_0001_0000100003_0000001_0_0001 (protein)
chain: SSSSSSLHELFELASRLMHAITKGDDELFRELVEEIRRLAEELNDENAKEILEWLERAFHSSSSS
B17: il2ra_site2_2erj_normal_mot_76e6e8f7232a9e65eeaab5ff8ecb4c96_0001_000000242_0001_17_31_H_._HHH_b1_06964_0001_0001300013_0000001_0_af2pred_0001_1_af2pred_swapped (protein)
chain: SSSSSEEEEEVEELLRRAEELLKRGDPEQARQVVIEAADLAARLRNEELEKLIAELLEKIRSSSS
B18: il2ra_site2_2erj_sap_24_mot_3b06bd03f1c6bceadc68eab912867b79_0001_000000296_0001_36_50_H_._HHH_b1_01731_af2_0001_0000400019_0000001_0_0001 (protein)
chain: SSSSDLEELLEEAERLLEEGDPEEAMKVLLEAATLAFERNDEELFSRLAELAHAIARANGSSSSS
B19: il2ra_site2_2erj_sap_28_mot_6c2800a769814540b5b47941e710ff28_0001_000000197_0001_35_49_H_._HHH_b2_00897_0001_0000800014_0000001_0_0001_af2pred_0001_1_af2pred_sw … (protein)
chain: SSSSSDREEVEEEVRELLERAERIPDLREALKLMEEADKLAAEIGDPELFQLVHEVLQRLSSSSS

molecular target: il2ra, P01589; test: yeast display titration

Apparent Kd, inactive:
B1 no binding seen
B2 no binding seen
B3 no binding seen
B4 no binding seen
B5 no binding seen
B6 no binding seen
B7 no binding seen
B8 no binding seen
B9 no binding seen
B10 no binding seen
B11 no binding seen
B12 no binding seen
B13 no binding seen
B14 no binding seen
B15 no binding seen
B16 no binding seen
B17 no binding seen
B18 no binding seen
B19 no binding seen

For convenience, some entries already given.
Apparent Kd, inactive:
B12 no binding seen
B13 no binding seen
